# Assay results published in PubChem BioAssay AID2685 (National Center for Advancing Translational Sciences (NCATS), 2010).
# The list shows a part of the results. The main result of the screen is listed elsewhere. These columns were measured beside it and carry no call. The list favours compounds with an active or inconclusive main result. Potencies come from curve fits of mixed quality, noted in brackets.
# Assay: qHTS Assay for Lipid Storage Modulators in Drosophila S3 Cells;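 for cell number change: cells counted by Cell Tracker Red CMTPX staining in the red channel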
# Conditions: BODIPY lipid droplet fluorescence, 18-24 h; for cell number change: measured here: cell count max response, cells fed with added oleic acid
# Procedure, shortened: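 Drosophila S3 cells loaded with oleic acid (400 uM, as added) and compounds at several concentrations; lipid droplets imaged by 488-nm laser-scanning cytometry, 500–530 nm intensity and object ratio to cell channel. Percent activity normalized to 20 uM Triacsin C.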
# [1] = measured here: lipid fluorescence (Fed channel) AC50, cells fed with added oleic acid
# [2] = measured here: cell number channel AC50, cells fed with added oleic acid
Structure (SMILES),cell number change,AC50 [1],AC50 [2]
COc1ccc(CNC(=O)/C=C/C(=O)O)cc1OC,27.5%,"0.058 µM [rising, single point]",–
Cc1ccc(NC(=S)N(Cc2cccs2)Cc2cc3cccc(C)c3[nH]c2=O)cc1,8.01%,"4.61 µM [rising, single point]",–
COC(=O)c1c(C(=O)OC)c(-c2cccc(F)c2)n2c1CS(=O)(=O)C2,31.5%,–,"0.326 µM [rising, full curve, poor fit]"
COC(=O)c1cc(OC)c(OC)cc1NC(=S)N1CCCC(CO)C1 (stereo unspecified),20.6%,–,–
O=C(NNC(=O)c1ccccc1O)c1ccc(Cl)c(S(=O)(=O)N2CCCCC2)c1,19.3%,–,–
O=C(COC(=O)c1cc(S(=O)(=O)N2CCCCC2)ccc1N1CCOCC1)NC1CCS(=O)(=O)C1 (stereo unspecified),-2.6%,"0.326 µM [rising, full curve]","0.164 µM [rising, full curve, poor fit]"
CC(C)COC(=O)C1C2C=CC3(CN(C4CCCC4)C(=O)C13)O2 (stereo unspecified),-44.8%,"4.11 µM [falling, full curve]","1.3 µM [falling, full curve]"
Cc1nc(SCC(=O)c2ccc(Cl)s2)c2oc3ccccc3c2n1,22.9%,"3.66 µM [falling, partial curve]",–
O=C(Nc1cccc(S(=O)(=O)N2CCCCC2)c1)c1ccc(S(=O)(=O)C(F)F)cc1,-15.1%,–,"0.00461 µM [rising, full curve, poor fit]"
C/C(N)=C(/C#N)C(=O)CSc1nc2scc(-c3ccccc3)c2c(=O)n1C,22.5%,"13 µM [rising, partial curve, poor fit]",–
OCC[C@H]1C[C@H](O)[C@@H](O)[C@@]2(Cc3ccccc3O2)O1,29.2%,–,–
Cc1ccccc1N1CCN(S(=O)(=O)c2nnc(NC(=O)c3ccco3)s2)CC1,9.79%,–,–
CCOc1ccc2[nH]cc(S(=O)(=O)c3ccc(F)cc3)c(=O)c2c1,-47.8%,"7.31 µM [falling, partial curve]","9.2 µM [falling, partial curve]"
CC(=O)Oc1c(C)c2c3c(c1OC(C)=O)[C@@H](C)CC[C@@H]3[C@@H](C)C[C@H]2C=C(C)C,-30.8%,"4.61 µM [falling, single point]","9.2 µM [falling, single point]"
CCn1cc(C(=O)Nc2ccc(NC(=O)c3ccco3)cc2)c(=O)c2ccc(C)nc21,-35.8%,"0.58 µM [falling, full curve]","0.731 µM [falling, full curve]"
O=C(CSc1nnc(-c2ccco2)n1-c1ccccc1)NCc1ccc2c(c1)OCO2,8.9%,"0.00461 µM [falling, full curve, poor fit]",–
Cc1ccc(C(C)C)c(OCCCCCN2CCOCC2)c1,19.8%,"0.58 µM [falling, single point]",–
C=CCOC(=O)C1=C(C)OC(N)=C(C#N)C1c1ccc2c(c1)OCO2 (stereo unspecified),–,"0.461 µM [rising, full curve]","0.146 µM [rising, full curve]"
CCOC(=O)C1CCN(C(=O)c2cc(OCC)c(OCC)c(OCC)c2)CC1,-51%,–,"29.1 µM [falling, single point]"

# 2 of the compounds above, as tab-separated lines.
Structure (SMILES)	cell number change	AC50 [1]	AC50 [2]
OCC[C@H]1C[C@H](O)[C@@H](O)[C@@]2(Cc3ccccc3O2)O1	29.2%	–	–
C=CCOC(=O)C1=C(C)OC(N)=C(C#N)C1c1ccc2c(c1)OCO2 (stereo unspecified)	–	0.461 µM [rising, full curve]	0.146 µM [rising, full curve]

# The results go on:

Structure (SMILES),cell number change,AC50 [1],AC50 [2]
Cn1cc(S(=O)(=O)c2ccccc2)c(=O)c2cc(Cl)ccc21,7.37%,"6.51 µM [rising, partial curve, poor fit]",–
Cc1ccccc1OCCNC(=O)CSc1ccc(C(F)(F)F)cc1[N+](=O)[O-],17.9%,"0.0291 µM [rising, full curve, poor fit]",–
Cc1cc(NC(=O)COC(=O)C(Nc2ccc(C(F)(F)F)cc2Cl)C(C)C)no1 (stereo unspecified),-136%,"29.1 µM [falling, partial curve]","9.2 µM [falling, partial curve]"
CCOC(=O)C1=C(COc2ccccc2)NC(=O)NC1c1cccc([N+](=O)[O-])c1 (stereo unspecified),–,"20.6 µM [falling, partial curve]",–
CCCNC(=O)c1ccc(N2CC3CC(C2)c2cccc(=O)n2C3)c(NC(=O)Nc2ccc(CC)cc2)c1 (stereo unspecified),–,"18.4 µM [rising, partial curve, poor fit]",–
O=C(C1CCCN(Cc2ccccc2[N+](=O)[O-])C1)N1CCCCC1 (stereo unspecified),-14.4%,–,–
CC(OC(=O)c1ccccc1NCCO)C(=O)NC1CCCCC1C (stereo unspecified),-20.1%,–,–
Cc1nn(C)c(Cl)c1CN1CCN(C2CCCC2)C(CCO)C1 (stereo unspecified),5.48%,"0.82 µM [rising, single point]",–
CSC(=Nc1ccc(Cl)cc1)N[n+]1ccccc1,-26.8%,"1.84 µM [falling, full curve, poor fit]",–
CC1CC(C)CN(C(=O)C2CCN(S(=O)(=O)N3CCC4(CC3)OCCO4)CC2)C1 (stereo unspecified),-9.17%,"0.116 µM [falling, full curve, poor fit]",–
COc1cccc(-n2c(=O)c3ccccc3n(CC(=O)NCC3CCCO3)c2=O)c1 (stereo unspecified),-11.3%,–,–
Cc1cccc(C2=NC(C(F)(F)F)(C(F)(F)F)c3c(n(-c4ccc(F)cc4)c(=O)[nH]c3=O)N2)c1,11.9%,"32.6 µM [rising, single point]",–
Cc1cccc2c1N(C(=O)c1ccco1)C(C)(C)c1ssc(=S)c1-2,–,"2.06 µM [falling, full curve, poor fit]",–
CCn1c(CNC(=O)C23CC4CC(CC(C4)C2)C3)nnc1SCC(=O)Nc1nnc(C)s1,0.623%,"18.4 µM [rising, single point]",–
Cc1nnc(SCCN2CCOCC2)n1-c1cccc(Cl)c1,-2%,"16.4 µM [falling, partial curve, poor fit]",–
Cc1ccc2c(c1)c1c(n2CC(O)Cn2c(C)nc3ccccc32)/C(=N\O)CCC1 (stereo unspecified),-97.3%,–,"29.1 µM [falling, single point]"
COc1ccccc1CNS(=O)(=O)CC12CCC(CC1=O)C2(C)C (stereo unspecified),5.98%,"8.2 µM [rising, partial curve]",–
COc1ccccc1CNC(=O)CCS(=O)(=O)c1ccc2c(c1)CCN2C(C)=O,8.4%,"6.51 µM [rising, single point]",–
Cc1cccc(NC(=O)N2C3CCCC2CC(NC(=O)C(C)(C)C)C3)c1 (stereo unspecified),–,–,"6.51 µM [falling, partial curve, poor fit]"

# Structures listed so far that contain a Cl atom:
Structure (SMILES),cell number change,AC50 [1],AC50 [2]
O=C(NNC(=O)c1ccccc1O)c1ccc(Cl)c(S(=O)(=O)N2CCCCC2)c1,19.3%,–,–
Cc1nc(SCC(=O)c2ccc(Cl)s2)c2oc3ccccc3c2n1,22.9%,"3.66 µM [falling, partial curve]",–
Cn1cc(S(=O)(=O)c2ccccc2)c(=O)c2cc(Cl)ccc21,7.37%,"6.51 µM [rising, partial curve, poor fit]",–
Cc1cc(NC(=O)COC(=O)C(Nc2ccc(C(F)(F)F)cc2Cl)C(C)C)no1 (stereo unspecified),-136%,"29.1 µM [falling, partial curve]","9.2 µM [falling, partial curve]"
Cc1nn(C)c(Cl)c1CN1CCN(C2CCCC2)C(CCO)C1 (stereo unspecified),5.48%,"0.82 µM [rising, single point]",–
CSC(=Nc1ccc(Cl)cc1)N[n+]1ccccc1,-26.8%,"1.84 µM [falling, full curve, poor fit]",–
Cc1nnc(SCCN2CCOCC2)n1-c1cccc(Cl)c1,-2%,"16.4 µM [falling, partial curve, poor fit]",–

# The list continues:

Structure (SMILES),cell number change,AC50 [1],AC50 [2]
S=c1[nH]c2ccc(Cl)cc2s1,-39.1%,"0.116 µM [falling, full curve]","0.146 µM [falling, full curve]"
CC(C)COC(=O)n1c(=O)oc2cc(S(=O)(=O)N3CCCCC3)ccc21,–,"5.8 µM [falling, full curve, poor fit]",–
Cc1nn(-c2ccccc2)c(C)c1NC(=O)COC(=O)c1ccc(O)cc1O,17%,–,"6.51 µM [rising, partial curve]"
O=C(CN1CCN(c2cnn(-c3ccccc3)c(=O)c2Cl)CC1)NC1CCS(=O)(=O)C1 (stereo unspecified),–,"0.00461 µM [rising, full curve, poor fit]","6.51 µM [falling, partial curve, poor fit]"
CCn1c2ccccc2c2cc(/C=N/NC(=O)c3cccc(C)c3)ccc21,-17.6%,"0.58 µM [rising, full curve]",–
COc1ccc(N2CC(C(=O)Nc3nnc(Cc4ccccc4)s3)CC2=O)cc1 (stereo unspecified),-2.86%,"6.51 µM [falling, single point]",–
COCCCNC(=O)Cn1ccc(NC(=O)OCc2ccccc2)nc1=O,14.3%,"29.1 µM [rising, single point]",–
CCn1nc(C)c(/C=N/NC(=O)Cn2nc(C)cc2C)c1C,126%,"7.31 µM [rising, partial curve]","29.1 µM [rising, single point]"
Cc1ccccc1C(=O)N1CCC(C(=O)Nc2cccc(S(=O)(=O)N3CCCCC3)c2)CC1,-41.4%,"16.4 µM [falling, partial curve]","9.2 µM [falling, partial curve, poor fit]"
Cc1ccc(CNC(=O)c2ccc3c(=O)n(CCCN4CCCC4=O)c(=S)[nH]c3c2)cc1,80.5%,–,"18.4 µM [rising, single point]"
CCOC(=O)N1CCN(C(=O)c2cc(COc3ccc(Cl)cc3OC)on2)CC1,-32%,–,"10.3 µM [falling, partial curve, poor fit]"
Brc1ccc2ncnc(NCc3ccccc3)c2c1,-19.1%,"3.26 µM [rising, partial curve]",–
CCC(C)(NC=O)C(=O)Nc1c(C)cccc1C (stereo unspecified),4.03%,"0.82 µM [rising, full curve, poor fit]",–
CC(=O)Nc1ccc(NS(=O)(=O)c2cccc3ccccc23)cc1,75.4%,–,"1.46 µM [rising, full curve]"
CC(NC(=O)CC1Sc2ccccc2NC1=O)c1ccccc1 (stereo unspecified),10.6%,–,"6.51 µM [rising, single point]"
COc1cccc(CN(C)C(=O)c2cc(-c3ccc(F)cc3)nc3ccccc23)c1,-12.4%,"18.4 µM [falling, single point]",–
O=C(CSc1ccc(Cl)cc1)N1CCCC1,-47.8%,"16.4 µM [falling, single point]","29.1 µM [falling, single point]"
O=C1CC(/C=C/c2ccncc2)=Nc2ccccc2N1,–,–,"6.51 µM [rising, single point]"
CCOC(=O)C1(Cc2ccc(Cl)cc2)CCN(C(=O)c2cscn2)CC1,-15.8%,"0.0058 µM [falling, full curve, poor fit]",–
